Reference: paper PMC10873425
These are yes or no findings as the source states them, for the method shown. In cells and extracts the contact can be indirect. Some results given as binding are weak or reduced against the parent protein; the word gives no strength. Sequences can lack the tags named with a protein.

Chains of the proteins cited; added tags and fusions are not shown.
UniProt P37238: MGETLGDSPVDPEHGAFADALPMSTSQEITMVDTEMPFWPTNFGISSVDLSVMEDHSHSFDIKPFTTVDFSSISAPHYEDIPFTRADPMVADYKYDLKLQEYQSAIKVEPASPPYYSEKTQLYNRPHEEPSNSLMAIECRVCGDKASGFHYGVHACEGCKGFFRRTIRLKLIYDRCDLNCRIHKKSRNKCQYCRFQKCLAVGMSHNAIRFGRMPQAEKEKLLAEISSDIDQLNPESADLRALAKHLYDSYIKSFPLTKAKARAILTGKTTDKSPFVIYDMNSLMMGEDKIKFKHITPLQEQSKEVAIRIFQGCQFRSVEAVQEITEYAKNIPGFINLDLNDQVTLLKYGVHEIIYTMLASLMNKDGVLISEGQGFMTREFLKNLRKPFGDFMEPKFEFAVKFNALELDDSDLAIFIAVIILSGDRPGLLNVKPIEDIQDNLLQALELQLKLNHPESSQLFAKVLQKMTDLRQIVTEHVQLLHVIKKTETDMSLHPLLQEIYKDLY

Biological target: T1, HA-tagged NCOA4 (nuclear receptor coactivator 4) (mouse) (UniProt Q5U4H9)
T1 sequence: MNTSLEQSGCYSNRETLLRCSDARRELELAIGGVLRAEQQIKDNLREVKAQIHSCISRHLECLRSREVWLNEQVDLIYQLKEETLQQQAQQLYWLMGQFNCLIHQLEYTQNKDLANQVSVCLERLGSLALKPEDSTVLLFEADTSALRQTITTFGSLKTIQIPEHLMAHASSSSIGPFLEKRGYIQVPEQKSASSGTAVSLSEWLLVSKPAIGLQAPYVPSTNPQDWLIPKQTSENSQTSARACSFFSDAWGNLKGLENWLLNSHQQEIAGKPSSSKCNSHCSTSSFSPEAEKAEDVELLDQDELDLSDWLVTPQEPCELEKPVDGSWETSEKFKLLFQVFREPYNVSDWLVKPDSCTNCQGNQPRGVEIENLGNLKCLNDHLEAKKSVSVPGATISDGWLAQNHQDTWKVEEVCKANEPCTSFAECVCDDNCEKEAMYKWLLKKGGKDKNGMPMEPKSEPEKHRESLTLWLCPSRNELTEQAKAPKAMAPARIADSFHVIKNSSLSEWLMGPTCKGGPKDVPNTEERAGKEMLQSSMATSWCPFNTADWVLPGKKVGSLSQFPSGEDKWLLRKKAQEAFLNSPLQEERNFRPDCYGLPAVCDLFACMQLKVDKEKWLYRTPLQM
Assay: co-IP; Flag-PPARγ and HA-NCOA4 (wild type or ∆NCOA4^LxxAA) expressed in cultured VSMCs (MOVAS); NP-40 lysate, anti-HA-tag or anti-Flag-tag, protein A/G PLUS-Agarose, 4 °C overnight, immunoblotting; with or without rosiglitazone (10 μM)

Flag-PPARγ (peroxisome proliferator-activated receptor-γ) (from UniProt P37238 1-505)
binding: binds
